# Results as given in paper PMC6529640, “Bacterioferritin of Magnetospirillum gryphiswaldense Is a Heterotetraeicosameric Complex Composed of Functionally Distinct Subunits but Is Not Involved in Magnetite Biomineralization” (mBio, 2019).
# Sequences of proteins named here, by UniProt entry; tags and fusion partners are left off. A change or cut given only in a name is not applied to a line headed by its entry.
# UniProt A0ACM8UJ62: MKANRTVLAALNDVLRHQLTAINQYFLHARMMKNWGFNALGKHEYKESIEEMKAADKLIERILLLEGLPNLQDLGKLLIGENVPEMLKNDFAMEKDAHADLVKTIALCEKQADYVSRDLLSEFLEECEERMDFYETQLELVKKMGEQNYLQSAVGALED
# UniProt A0ACM8UIY5: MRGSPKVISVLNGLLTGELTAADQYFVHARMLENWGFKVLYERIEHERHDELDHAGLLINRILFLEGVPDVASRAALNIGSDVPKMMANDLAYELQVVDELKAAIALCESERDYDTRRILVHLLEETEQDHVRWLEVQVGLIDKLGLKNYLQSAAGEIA
# Experiments:
# [1] = biological target: Strep-tagged Bfr1 of MSR-1, coexpressed with His-tagged Bfr2 from pET-51b-Bfr12 (Magnetospirillum gryphiswaldense MSR-1); test: native gel or EMSA; BN-PAGE of purified proteins on polyacrylamide gradient gels, run at 4°C, Coomassie stained; Bfr2 and Bfr12 ~22 μM, Bfr1 ~30 μM in 50 mM Tris-HCl, 50 mM NaCl, pH 8.0, or Bfr12 dialysed against 50 mM imidazole-HCl, 50 mM NaCl, pH 7; for Bfr12 also a second dimension of SDS-PAGE (2D-BN/SDS-PAGE); both purified
# [2] = biological target: Strep-tagged Bfr1 of MSR-1, coexpressed with His-tagged Bfr2 from pET-51b-Bfr12 (Magnetospirillum gryphiswaldense MSR-1); test: pull-down; Strep tag affinity purification of Strep-tagged Bfr1 from E. coli Rosetta(DE3)pLysS coexpressing His-tagged Bfr2 (pET-51b-Bfr12); Coomassie-stained SDS-PAGE
# [3] = biological target: His-tagged Bfr2 of MSR-1, coexpressed with Strep-tagged Bfr1 from pET-51b-Bfr12 (Magnetospirillum gryphiswaldense MSR-1); test: pull-down; tandem affinity purification: Strep-tag eluate then purified by the His-tagged Bfr2 on Ni-NTA; Coomassie-stained SDS-PAGE
binding [1],binding [2],binding [3],Substance
binds,binds,–,"His-tagged Bfr2 of MSR-1, coexpressed with Strep-tagged Bfr1 from pET-51b-Bfr12 (from UniProt A0ACM8UJ62 1-159)"
–,–,binds,"Strep-tagged Bfr1 of MSR-1, coexpressed with His-tagged Bfr2 from pET-51b-Bfr12 (from UniProt A0ACM8UIY5)"

# Results are given in words; binding and its absence hold for the method and conditions named. Binding can be weak; no strength is given. For part of these data: Binding seen in cells or lysates may run through a third protein.
